Sequences of proteins named here, by UniProt entry; tags and fusion partners are left off.
UniProt O14646: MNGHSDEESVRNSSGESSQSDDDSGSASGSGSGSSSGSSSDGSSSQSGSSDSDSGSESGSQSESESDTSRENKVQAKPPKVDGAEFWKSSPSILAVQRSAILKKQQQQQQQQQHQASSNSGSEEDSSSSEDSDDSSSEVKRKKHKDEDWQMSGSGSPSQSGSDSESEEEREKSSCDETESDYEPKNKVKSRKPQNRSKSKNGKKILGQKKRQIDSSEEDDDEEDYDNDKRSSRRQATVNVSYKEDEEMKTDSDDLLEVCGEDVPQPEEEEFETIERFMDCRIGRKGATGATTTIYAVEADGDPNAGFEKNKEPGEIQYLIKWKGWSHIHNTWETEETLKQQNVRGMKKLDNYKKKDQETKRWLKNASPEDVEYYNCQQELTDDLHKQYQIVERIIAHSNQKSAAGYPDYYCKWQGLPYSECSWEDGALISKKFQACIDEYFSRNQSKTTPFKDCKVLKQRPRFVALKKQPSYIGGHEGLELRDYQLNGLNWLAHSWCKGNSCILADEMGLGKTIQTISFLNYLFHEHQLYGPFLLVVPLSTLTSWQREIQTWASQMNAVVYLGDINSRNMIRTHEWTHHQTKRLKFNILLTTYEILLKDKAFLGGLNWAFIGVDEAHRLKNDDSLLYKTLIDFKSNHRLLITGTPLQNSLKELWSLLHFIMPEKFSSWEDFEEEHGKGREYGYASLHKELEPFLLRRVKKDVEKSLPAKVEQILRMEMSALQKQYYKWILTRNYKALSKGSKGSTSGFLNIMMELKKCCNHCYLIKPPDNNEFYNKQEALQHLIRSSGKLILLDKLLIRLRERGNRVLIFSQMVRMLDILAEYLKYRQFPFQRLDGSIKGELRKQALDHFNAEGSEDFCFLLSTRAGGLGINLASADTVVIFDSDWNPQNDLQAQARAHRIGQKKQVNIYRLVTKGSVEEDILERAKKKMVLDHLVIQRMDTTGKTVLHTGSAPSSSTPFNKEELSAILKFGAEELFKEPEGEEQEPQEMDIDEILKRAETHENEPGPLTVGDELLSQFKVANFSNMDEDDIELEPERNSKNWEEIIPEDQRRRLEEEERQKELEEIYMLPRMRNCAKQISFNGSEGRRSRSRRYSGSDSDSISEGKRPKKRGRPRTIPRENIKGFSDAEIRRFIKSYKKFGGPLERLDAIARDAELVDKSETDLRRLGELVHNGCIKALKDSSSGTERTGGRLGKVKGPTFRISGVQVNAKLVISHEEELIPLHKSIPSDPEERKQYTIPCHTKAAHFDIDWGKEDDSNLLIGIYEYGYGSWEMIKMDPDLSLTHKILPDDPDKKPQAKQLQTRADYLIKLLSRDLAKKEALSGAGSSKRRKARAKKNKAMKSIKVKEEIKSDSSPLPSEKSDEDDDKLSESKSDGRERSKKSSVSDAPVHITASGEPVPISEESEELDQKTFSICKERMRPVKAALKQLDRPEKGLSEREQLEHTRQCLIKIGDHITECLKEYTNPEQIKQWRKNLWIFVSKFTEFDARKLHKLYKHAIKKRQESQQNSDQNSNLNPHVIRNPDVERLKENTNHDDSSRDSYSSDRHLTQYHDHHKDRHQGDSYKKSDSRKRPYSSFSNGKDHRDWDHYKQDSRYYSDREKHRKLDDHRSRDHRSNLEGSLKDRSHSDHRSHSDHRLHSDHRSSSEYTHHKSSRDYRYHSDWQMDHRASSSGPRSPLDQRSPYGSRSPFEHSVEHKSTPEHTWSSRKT
UniProt Q9UBL3: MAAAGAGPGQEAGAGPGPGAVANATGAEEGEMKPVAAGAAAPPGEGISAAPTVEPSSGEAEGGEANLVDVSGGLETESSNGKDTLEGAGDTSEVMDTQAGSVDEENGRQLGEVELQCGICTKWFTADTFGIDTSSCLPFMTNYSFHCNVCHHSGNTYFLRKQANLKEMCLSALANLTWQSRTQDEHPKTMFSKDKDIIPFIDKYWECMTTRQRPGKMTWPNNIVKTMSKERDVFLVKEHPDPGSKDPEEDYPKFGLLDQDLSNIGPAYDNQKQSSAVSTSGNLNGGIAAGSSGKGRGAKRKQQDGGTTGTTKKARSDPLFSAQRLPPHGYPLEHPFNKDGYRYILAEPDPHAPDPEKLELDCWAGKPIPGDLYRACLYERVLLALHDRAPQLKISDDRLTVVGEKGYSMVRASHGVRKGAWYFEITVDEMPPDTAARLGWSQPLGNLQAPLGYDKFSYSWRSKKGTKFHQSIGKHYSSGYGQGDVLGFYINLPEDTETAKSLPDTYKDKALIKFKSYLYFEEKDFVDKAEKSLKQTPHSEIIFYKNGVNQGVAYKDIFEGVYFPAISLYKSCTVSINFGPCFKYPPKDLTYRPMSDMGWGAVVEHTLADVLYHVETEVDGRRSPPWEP
UniProt Q9H9B1: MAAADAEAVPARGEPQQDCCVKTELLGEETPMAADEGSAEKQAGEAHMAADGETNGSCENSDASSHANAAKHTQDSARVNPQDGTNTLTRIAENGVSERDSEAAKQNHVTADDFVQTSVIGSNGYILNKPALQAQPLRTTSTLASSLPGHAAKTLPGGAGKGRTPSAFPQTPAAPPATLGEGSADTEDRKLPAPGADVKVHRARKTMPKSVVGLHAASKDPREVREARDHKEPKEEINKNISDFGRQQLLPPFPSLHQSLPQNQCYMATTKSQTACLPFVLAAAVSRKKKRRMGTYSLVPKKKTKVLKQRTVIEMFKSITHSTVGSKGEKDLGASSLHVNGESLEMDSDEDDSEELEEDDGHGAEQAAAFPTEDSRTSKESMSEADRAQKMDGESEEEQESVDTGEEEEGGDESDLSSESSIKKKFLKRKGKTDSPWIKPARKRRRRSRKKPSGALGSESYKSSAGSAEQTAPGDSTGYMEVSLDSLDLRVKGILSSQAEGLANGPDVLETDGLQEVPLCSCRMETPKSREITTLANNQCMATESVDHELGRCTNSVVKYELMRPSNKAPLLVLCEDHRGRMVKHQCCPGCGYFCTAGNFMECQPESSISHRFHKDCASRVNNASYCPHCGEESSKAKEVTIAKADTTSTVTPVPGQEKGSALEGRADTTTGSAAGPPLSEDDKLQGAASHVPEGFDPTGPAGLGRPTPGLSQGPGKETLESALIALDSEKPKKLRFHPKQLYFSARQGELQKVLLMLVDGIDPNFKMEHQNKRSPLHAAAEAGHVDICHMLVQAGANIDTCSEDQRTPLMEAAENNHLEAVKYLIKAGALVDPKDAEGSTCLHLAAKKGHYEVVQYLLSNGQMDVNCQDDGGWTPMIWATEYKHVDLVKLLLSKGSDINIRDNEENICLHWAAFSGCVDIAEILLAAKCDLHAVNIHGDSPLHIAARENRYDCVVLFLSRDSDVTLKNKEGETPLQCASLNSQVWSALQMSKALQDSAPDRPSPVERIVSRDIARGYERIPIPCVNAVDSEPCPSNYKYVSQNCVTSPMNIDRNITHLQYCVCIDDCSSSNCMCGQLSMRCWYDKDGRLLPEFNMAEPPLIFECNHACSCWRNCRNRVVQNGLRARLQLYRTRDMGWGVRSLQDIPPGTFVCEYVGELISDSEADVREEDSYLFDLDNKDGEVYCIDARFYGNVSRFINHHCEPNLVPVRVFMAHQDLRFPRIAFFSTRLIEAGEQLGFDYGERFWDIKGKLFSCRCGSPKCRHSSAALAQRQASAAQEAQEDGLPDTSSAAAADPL
UniProt Q15022: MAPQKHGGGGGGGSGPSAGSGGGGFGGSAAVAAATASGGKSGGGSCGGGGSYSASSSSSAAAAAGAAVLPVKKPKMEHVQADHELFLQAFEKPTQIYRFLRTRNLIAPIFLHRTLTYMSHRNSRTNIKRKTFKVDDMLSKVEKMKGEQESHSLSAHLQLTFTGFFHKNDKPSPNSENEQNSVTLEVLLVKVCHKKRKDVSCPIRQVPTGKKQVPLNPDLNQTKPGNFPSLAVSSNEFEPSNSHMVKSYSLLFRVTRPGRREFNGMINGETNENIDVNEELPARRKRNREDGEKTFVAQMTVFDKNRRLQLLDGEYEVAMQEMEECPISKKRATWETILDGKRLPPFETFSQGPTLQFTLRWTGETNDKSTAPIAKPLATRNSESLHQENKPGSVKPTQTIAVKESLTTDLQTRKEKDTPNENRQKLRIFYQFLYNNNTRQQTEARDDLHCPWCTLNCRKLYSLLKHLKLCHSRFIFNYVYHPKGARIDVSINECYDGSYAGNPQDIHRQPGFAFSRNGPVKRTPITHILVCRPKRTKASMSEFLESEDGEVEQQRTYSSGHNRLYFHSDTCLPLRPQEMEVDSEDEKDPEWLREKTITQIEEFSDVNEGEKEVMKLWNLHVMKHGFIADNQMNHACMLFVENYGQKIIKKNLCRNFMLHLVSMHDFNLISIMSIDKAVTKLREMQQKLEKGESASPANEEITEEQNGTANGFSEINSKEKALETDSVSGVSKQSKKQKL

In article PMC12575849:

Target: CHD1^WT-Venus (chromodomain helicase DNA-binding 1, wild type) (human) (UniProt O14646)
Assay: proximity labelling; antibody-based in situ biotinylation: fixed (4% PFA), permeabilised HeLa cells, anti-GFP primary antibody, HRP-conjugated secondary antibody, biotin-tyramide and H2O2 for 1 min (~20 nm radius), avidin pull-down, LC-MS/MS with label-free quantification; single biological replicate

| binding | Substance |
| --- | --- |
| binds | ASH2L (from UniProt Q9UBL3 1-628) |
| binds | EHMT1 (from UniProt Q9H9B1 1-1298) |
| binds | EP400 (from UniProt Q96L91 1-3159) |
| binds | SUZ12 (from UniProt Q15022 1-739) |

No constants are given. Whether binding was seen depends on the method and setting. In cells and extracts the contact can be indirect. Here binding means that the protein was enriched with, or labelled near, the bait; the list need not be complete.
